Test results published in the supplement of paper PMC4604168 (melanoma cell lines).
Some of the results follow. Single values are uncertain, as repeats are few or missing.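 Cells were imaged in 1,536-well plates, and nuclei stained with an antibody against cleaved PARP were counted against all DNA-stained nuclei to give the apoptosis fraction. Screening doses were chosen to leave most cells alive, and resting and induced cleaved-PARP levels differ strongly between cell lines.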

Legend:
Test in all cases: cleaved PARP positive nuclei fraction relative to DMSO control; melanoma cells; higher = more apoptosis
Conditions in all cases: library dose: low library concentration; 72 h
501Mel = tested on: 501Mel
A101D = tested on: A101D
A2058 = tested on: A2058
A375 = tested on: A375
C32 = tested on: C32
CBRC013 = tested on: CBRC013 (line from a melanoma biopsy)
CBRC014 = tested on: CBRC014 (line from a melanoma biopsy)
CBRC016 = tested on: CBRC016 (line from a melanoma biopsy)
CBRC017 = tested on: CBRC017 (line from a melanoma biopsy)
CBRC034 = tested on: CBRC034 (line from a melanoma biopsy)
COLO792 = tested on: COLO792
COLO800 = tested on: COLO800
COLO829 = tested on: COLO829
G361 = tested on: G361
IPC-298 = tested on: IPC-298
IST-MEL1 = tested on: IST-MEL1
LB2518-MEL = tested on: LB2518-MEL
LOXIMVI = tested on: LOXIMVI

Compound	cleaved PARP positive nuclei fraction (501Mel)	cleaved PARP positive nuclei fraction (A101D)	cleaved PARP positive nuclei fraction (A2058)	cleaved PARP positive nuclei fraction (A375)	cleaved PARP positive nuclei fraction (C32)	cleaved PARP positive nuclei fraction (CBRC013)	cleaved PARP positive nuclei fraction (CBRC014)	cleaved PARP positive nuclei fraction (CBRC016)	cleaved PARP positive nuclei fraction (CBRC017)	cleaved PARP positive nuclei fraction (CBRC034)	cleaved PARP positive nuclei fraction (COLO792)	cleaved PARP positive nuclei fraction (COLO800)	cleaved PARP positive nuclei fraction (COLO829)	cleaved PARP positive nuclei fraction (G361)	cleaved PARP positive nuclei fraction (IPC-298)	cleaved PARP positive nuclei fraction (IST-MEL1)	cleaved PARP positive nuclei fraction (LB2518-MEL)	cleaved PARP positive nuclei fraction (LOXIMVI)
Oc1cc(-c2nc(-c3ccccc3)[nH]c2-c2ccncc2)ccc1Cl + Cn1cc(/C=C2\C(=O)Nc3cccnc32)c2ccccc21 [GW441756] (first compound 0.2 µM, partner dose 0.4 µM)	129%	243%	32.4%	234%	124%	77.2%	90.9%	44.6%	96.2%	120%	129%	84.7%	112%	129%	38%	64.8%	75.1%	63.3%
NCC(=O)Nc1ccc(-n2nc(C(F)(F)F)cc2-c2ccc3c(ccc4ccccc43)c2)cc1 + COC(=O)c1sccc1S(=O)(=O)Nc1ccc(Nc2ccccc2)cc1OC [GSK0660] (first compound 1 µM, partner dose 1 µM)	817%	100%	64.8%	3620%	69.7%	144%	97.4%	95.1%	132%	197%	86.2%	74.7%	160%	25.7%	85.6%	120%	80.9%	34.7%
COc1ccc2c(c1)CCC1C2CCC2(C)C(NCCCCCCN3C(=O)C=CC3=O)CCC12 (centres undefined) + COc1cc2ncnc(Nc3ccc(Oc4ccccc4)cc3)c2cc1OC [SrcI1] (first compound 0.4 µM, partner dose 2 µM)	77.3%	106%	150%	180%	35.3%	103%	107%	86.4%	167%	114%	116%	39.4%	51.6%	66.8%	58.3%	44%	146%	95.2%
CN(C)S(=O)(=O)c1ccc2c(c1)/C(=C/c1cc3c([nH]1)CCCC3)C(=O)N2 + O=C(Nc1ccccc1)c1cc([N+](=O)[O-])ccc1Cl [GW9662] (first compound 0.4 µM, partner dose 2 µM)	91.6%	148%	78.9%	83.6%	72.1%	653%	101%	112%	103%	49.6%	71.5%	103%	180%	207%	58.4%	85.5%	106%	56.9%
c1cc(-c2cnn3cc(-c4ccc(OCCN5CCCCC5)cc4)cnc23)ccn1 [Dorsomorphin] + O=c1cc(-c2cccc3c2Sc2ccccc2S3)oc(N2CCOCC2)c1 [KU55933] (first compound 0.4 µM, partner dose 1 µM)	85.1%	145%	119%	165%	110%	59.8%	113%	40%	80.7%	80.5%	63.6%	42.2%	99.2%	132%	80.4%	408%	105%	2850%
COc1cc2c(Oc3ccc4[nH]c(C)cc4c3F)ncnc2cc1OCCCN1CCCC1 [cediranib] + COc1ccc(COc2ccc(Cc3cnc(N)nc3N)cc2OC)cc1 [GW2580] (first compound 0.4 µM, partner dose 1 µM)	160%	52.8%	200%	93.4%	149%	102%	94.9%	69.2%	185%	91.9%	132%	38.6%	60.7%	159%	161%	75%	76.2%	33.5%
NCC(=O)Nc1ccc(-n2nc(C(F)(F)F)cc2-c2ccc3c(ccc4ccccc43)c2)cc1 + O=S(=O)(c1ccccc1)N(CC(F)(F)F)c1ccc(C(O)(C(F)(F)F)C(F)(F)F)cc1 [T0901317] (first compound 1 µM, partner dose 1.4 µM)	697%	84.7%	45.5%	1470%	102%	220%	101%	108%	106%	65.8%	83.3%	147%	142%	116%	72.6%	41.9%	80.4%	76.6%
O=C(Nc1ccccc1)c1cc([N+](=O)[O-])ccc1Cl + N#Cc1c(O)c2c(-c3ccc(-c4ccccc4O)cc3)csc2[nH]c1=O [A769662] (first compound 2 µM, partner dose 2 µM)	46.2%	130%	52.5%	127%	109%	133%	103%	118%	82%	46.8%	92.3%	101%	103%	72.5%	21.7%	42%	77.5%	83.1%
O=C(O)c1ccc(-c2c[nH]c3ncc(-c4ccccc4)cc23)cc1C1CCCC1 + COc1ccc(COc2ccc(Cc3cnc(N)nc3N)cc2OC)cc1 [GW2580] (first compound 0.16 µM, partner dose 1 µM)	84.7%	41.6%	59%	185%	125%	163%	105%	21.8%	205%	53.5%	79.9%	29.5%	179%	156%	87.1%	191%	84.3%	27.1%
CCc1ccc(CCOc2ccc(CC3SC(=O)NC3=O)cc2)nc1 (centres undefined) [pioglitazone] + CCN(CC)CCCCNc1ncc2cc(-c3cc(OC)cc(OC)c3)c(NC(=O)NC(C)(C)C)nc2n1 [PD173074] (first compound 2 µM, partner dose 0.1 µM)	163%	310%	43.6%	67.5%	25.8%	64.5%	84.4%	63.2%	70.2%	43.1%	70.4%	13.4%	128%	153%	41.4%	115%	92.3%	26.1%
N#Cc1c(O)c2c(-c3ccc(-c4ccccc4O)cc3)csc2[nH]c1=O + COc1cc(N2CCC(N3CCN(C)CC3)CC2)ccc1Nc1ncc(Cl)c(Nc2ccccc2S(=O)(=O)C(C)C)n1 [NVP-TAE684] (first compound 2 µM, partner dose 0.08 µM)	100%	36.3%	161%	217%	52%	42%	89.9%	36.9%	78.1%	85.3%	159%	96.6%	122%	67.1%	111%	56.5%	39.6%	60%
COC(=O)c1sccc1S(=O)(=O)Nc1ccc(Nc2ccccc2)cc1OC + CCCCCCCCCCCC1=C(O)C(=O)C=C(O)C1=O [Embelin] (first compound 1 µM, partner dose 1.2 µM)	61.3%	107%	57.7%	143%	209%	791%	94.6%	171%	44%	77.8%	130%	104%	83.6%	105%	53%	44.2%	100%	49.7%
COC(=O)c1sccc1S(=O)(=O)Nc1ccc(Nc2ccccc2)cc1OC + c1cc(-c2cnn3cc(-c4ccc(OCCN5CCCCC5)cc4)cnc23)ccn1 [Dorsomorphin] (first compound 1 µM, partner dose 0.4 µM)	71.9%	268%	132%	72%	71.1%	81.6%	111%	101%	89.3%	152%	129%	79.6%	87.5%	198%	39.3%	41.7%	156%	63.2%
COC(=O)c1sccc1S(=O)(=O)Nc1ccc(Nc2ccccc2)cc1OC + COc1cc2ncnc(Nc3ccc(Oc4ccccc4)cc3)c2cc1OC [SrcI1] (first compound 1 µM, partner dose 2 µM)	123%	102%	95%	130%	42.4%	110%	87%	151%	103%	95.4%	157%	110%	122%	118%	45.4%	176%	126%	53.2%
Cn1cc(/C=C2\C(=O)Nc3cccnc32)c2ccccc21 + CC(C)CCN1c2nc(Nc3cc(F)c(O)c(F)c3)ncc2N(C)C(=O)C1C [BID1870] (first compound 0.4 µM, partner dose 0.2 µM)	113%	94.8%	81.6%	85.6%	100%	164%	119%	134%	98.6%	47.5%	98.8%	160%	79.4%	58.9%	166%	51.6%	95.1%	26.5%
CCN(CC)CCCCNc1ncc2cc(-c3cc(OC)cc(OC)c3)c(NC(=O)NC(C)(C)C)nc2n1 + CC(C)CCN1c2nc(Nc3cc(F)c(O)c(F)c3)ncc2N(C)C(=O)C1C [BID1870] (first compound 0.1 µM, partner dose 0.2 µM)	82.9%	85.8%	31.3%	111%	61.3%	247%	85.8%	49.6%	64.2%	29.7%	105%	51.5%	47.2%	61.1%	56.9%	35.3%	90.5%	11%
CN(C)S(=O)(=O)c1ccc2c(c1)/C(=C/c1cc3c([nH]1)CCCC3)C(=O)N2 + CCN(CC)CCCCNc1ncc2cc(-c3cc(OC)cc(OC)c3)c(NC(=O)NC(C)(C)C)nc2n1 [PD173074] (first compound 0.4 µM, partner dose 0.1 µM)	35.9%	395%	44.9%	72.1%	220%	66.9%	108%	97.1%	112%	183%	72.3%	92.1%	67.7%	77.8%	28%	92.1%	184%	35.8%
CN(C)S(=O)(=O)c1ccc2c(c1)/C(=C/c1cc3c([nH]1)CCCC3)C(=O)N2 + COc1ccc2c(c1)CCC1C2CCC2(C)C(NCCCCCCN3C(=O)C=CC3=O)CCC12 [U73122] (first compound 0.4 µM, partner dose 0.4 µM)	91.9%	66.5%	59.6%	46.1%	72.5%	49%	112%	72.6%	96.2%	92.6%	77.8%	88.5%	64.9%	150%	125%	86.8%	236%	50%

An excerpt of these results, in markdown.

| Compound | cleaved PARP positive nuclei fraction (501Mel) | cleaved PARP positive nuclei fraction (A101D) | cleaved PARP positive nuclei fraction (A2058) | cleaved PARP positive nuclei fraction (A375) | cleaved PARP positive nuclei fraction (C32) | cleaved PARP positive nuclei fraction (CBRC013) | cleaved PARP positive nuclei fraction (CBRC014) | cleaved PARP positive nuclei fraction (CBRC016) | cleaved PARP positive nuclei fraction (CBRC017) | cleaved PARP positive nuclei fraction (CBRC034) | cleaved PARP positive nuclei fraction (COLO792) | cleaved PARP positive nuclei fraction (COLO800) | cleaved PARP positive nuclei fraction (COLO829) | cleaved PARP positive nuclei fraction (G361) | cleaved PARP positive nuclei fraction (IPC-298) | cleaved PARP positive nuclei fraction (IST-MEL1) | cleaved PARP positive nuclei fraction (LB2518-MEL) | cleaved PARP positive nuclei fraction (LOXIMVI) |
| --- | --- | --- | --- | --- | --- | --- | --- | --- | --- | --- | --- | --- | --- | --- | --- | --- | --- | --- |
| CN(C)S(=O)(=O)c1ccc2c(c1)/C(=C/c1cc3c([nH]1)CCCC3)C(=O)N2 + CCN(CC)CCCCNc1ncc2cc(-c3cc(OC)cc(OC)c3)c(NC(=O)NC(C)(C)C)nc2n1 [PD173074] (first compound 0.4 µM, partner dose 0.1 µM) | 35.9% | 395% | 44.9% | 72.1% | 220% | 66.9% | 108% | 97.1% | 112% | 183% | 72.3% | 92.1% | 67.7% | 77.8% | 28% | 92.1% | 184% | 35.8% |
| CN(C)S(=O)(=O)c1ccc2c(c1)/C(=C/c1cc3c([nH]1)CCCC3)C(=O)N2 + COc1ccc2c(c1)CCC1C2CCC2(C)C(NCCCCCCN3C(=O)C=CC3=O)CCC12 [U73122] (first compound 0.4 µM, partner dose 0.4 µM) | 91.9% | 66.5% | 59.6% | 46.1% | 72.5% | 49% | 112% | 72.6% | 96.2% | 92.6% | 77.8% | 88.5% | 64.9% | 150% | 125% | 86.8% | 236% | 50% |
